This data set has as its target PARP1 (UniProt P09874). The experiment in a line: AFM in liquid. To be noted: nick by Nt.BsmAI between bases 172 and 173, AFM: 12.5 mM NaCl, 12.5 mM Hepes, 0.5 mM TCEP pH 7.8, room temperature, recombinant protein, protein details: N-terminal His6-AviTag, probe letters rebuilt from the primers and the genome.

Sequences of proteins named here, by UniProt entry; tags and fusion partners are left off.
UniProt P09874, whole entry: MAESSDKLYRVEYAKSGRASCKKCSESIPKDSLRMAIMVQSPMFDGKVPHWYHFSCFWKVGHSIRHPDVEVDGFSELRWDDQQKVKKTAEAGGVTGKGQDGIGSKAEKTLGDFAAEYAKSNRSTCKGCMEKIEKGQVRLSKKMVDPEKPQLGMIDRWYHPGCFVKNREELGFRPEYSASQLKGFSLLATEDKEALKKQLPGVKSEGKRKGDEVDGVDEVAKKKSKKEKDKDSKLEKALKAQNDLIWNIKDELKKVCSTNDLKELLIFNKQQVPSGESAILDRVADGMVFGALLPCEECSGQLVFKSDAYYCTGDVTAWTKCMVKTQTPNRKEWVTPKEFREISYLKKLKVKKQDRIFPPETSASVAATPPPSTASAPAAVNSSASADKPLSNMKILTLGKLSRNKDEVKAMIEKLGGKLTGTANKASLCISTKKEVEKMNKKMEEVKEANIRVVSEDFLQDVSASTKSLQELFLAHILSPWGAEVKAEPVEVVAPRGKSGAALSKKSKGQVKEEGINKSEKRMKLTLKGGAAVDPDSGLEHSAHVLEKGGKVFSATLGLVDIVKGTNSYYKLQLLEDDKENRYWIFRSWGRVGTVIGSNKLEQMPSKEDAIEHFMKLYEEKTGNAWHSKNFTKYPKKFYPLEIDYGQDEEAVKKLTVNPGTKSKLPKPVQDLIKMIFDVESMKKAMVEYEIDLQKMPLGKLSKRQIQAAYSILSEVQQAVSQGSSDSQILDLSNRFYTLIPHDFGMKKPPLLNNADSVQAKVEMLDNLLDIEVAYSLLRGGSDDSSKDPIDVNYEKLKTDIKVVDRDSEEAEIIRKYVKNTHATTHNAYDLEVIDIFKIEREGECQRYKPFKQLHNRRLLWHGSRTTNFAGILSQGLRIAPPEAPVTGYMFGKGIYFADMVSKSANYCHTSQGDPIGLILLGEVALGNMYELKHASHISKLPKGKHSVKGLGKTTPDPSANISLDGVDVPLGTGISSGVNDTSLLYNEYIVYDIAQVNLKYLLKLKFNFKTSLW

Construct, isoform or probe ends are uncertain for at least one entry.

Take “TGAAATTGCCGCGTATTACGCCGCAGCGCCGGTCCGGCTGGGAGGCGCAAAAGTACCGCACCTGATGCCGGGTGACTCACTGAACCTGCAGACGGCTCAGGATACGGATAACGGCTACTCCGTGTTTGAGCAGTCACTGCTGCGGTATATCGCTGCCGGGCTGGGTGTCTCGTATGAGCAGCTTTCCCGGAATTACGCCCAGATGAGCTACTCCACGGCACGGGCCAGTGCGAACGAGTCGTGGGCGTACTTTATGGGGCGGCGAAAATTCGTCGCATCCCGTCAGGCGAGCCAGATGTTTCTGTGCTGGCTGGAAGAGGCCATCGTTCGCCGCGTGGTGACGTTACCTTCAAAAGCGCGCTTCAGTTTTCAGGAAGCCCGCAGTGCCTGGGGGAACTGCGACTGGATAGGCTCCGGTCGTATGGCCATCGATGGTCTGAAAGAAGTTCAGGAAGCGGTGATGCTGATAGAAGCCGGACTGAGTACCTACGAGAAA (double strand) [496-bp lambda PCR fragment with SSB]”: the binding result by setting is: (500 nM olaparib, similar height profiles) “binds”; (no olaparib) “binds”.

The values are drawn from PMC8357241.
